# Paper PMC7819943, “Rice protein-binding microarrays: a tool to detect cis-acting elements near promoter regions in rice”
# Amino acid sequences for entries named in this document (tags omitted).
# UniProt Q0JBA9, entry or part of it: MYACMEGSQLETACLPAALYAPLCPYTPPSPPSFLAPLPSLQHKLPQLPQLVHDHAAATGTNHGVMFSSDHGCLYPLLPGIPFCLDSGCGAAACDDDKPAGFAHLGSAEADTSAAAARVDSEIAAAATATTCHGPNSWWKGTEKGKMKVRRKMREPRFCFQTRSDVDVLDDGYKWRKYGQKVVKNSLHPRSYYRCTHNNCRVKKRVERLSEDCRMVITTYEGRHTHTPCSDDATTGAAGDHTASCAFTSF
# The other results are listed elsewhere or left out.
# Target: OsWRKY34 (Oryza sativa, UniProt Q0JBA9 1-250)
# Test: protein-binding microarray (RPBM); PBS, 2% BSA, 51.3 ng/ul salmon testes DNA, 50 uM zinc acetate, 200 nM TF, 25 C, 1 h; high values mean tight binding
# Conditions: protein: recombinant; tags: N-terminal polyhistidine and DsRed monomer fusion (pET32a); label: CyDye5-dUTP incorporated in the synthesized complementary strand; 3' TTTTT single-stranded linker to array surface; dsDNA, one strand shown
# Outline: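 The binding signal is fluorescence intensity per feature, in arbitrary units, read on an Axon 4000B scanner. Polyhistidine- and DsRed-tagged transcription factors (N-terminal fusions) from E. coli BL21-CodonPlus were purified on Ni–NTA and applied at 200 nM for 1 h at 25 °C to a double-stranded, BSA-blocked custom Agilent array in buffer with 50 µM zinc acetate.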
row,Sequence,binding signal
1,CTCTTATCTTTTACCTCATTATGCTATTGTACCTGCTCTACGGAGTCACCTAGTGCAG,11400 fluorescence intensity (a.u.)
2,GTGTTTGGTTCGCTGCCGCAATTGTGTTATGCCACACTTTCGGAGTCACCTAGTGCAG,10800 fluorescence intensity (a.u.)
3,TCCGTATCCAATGATCGATGTGACTAATTTTTACACCCGACGGAGTCACCTAGTGCAG,8040 fluorescence intensity (a.u.)
4,ATCGTGCTATGGACTGTTCTGTTTTCGTGCTAGGGTGATACGGAGTCACCTAGTGCAG,9930 fluorescence intensity (a.u.)
5,AACGCCGGGGACCAACGCCTCACCCTAAGAAGCACAACTTCGGAGTCACCTAGTGCAG,8550 fluorescence intensity (a.u.)
6,CCTTTCTTTTAATCTAGCCACCAATTTAATTCTTGTGGCTCGGAGTCACCTAGTGCAG,8430 fluorescence intensity (a.u.)
7,CCAGTTTGGTAGCTGTTCATGATGAACCTCTGTTTCTATCCGGAGTCACCTAGTGCAG,8140 fluorescence intensity (a.u.)
8,CCTGCCCCATCCCGCGTCGGAAGCCTTACCAACTGCCCCACGGAGTCACCTAGTGCAG,8420 fluorescence intensity (a.u.)
9,ACATATTTTTGAAATGAAGAACTCAATTTTTCTGCCATCTCGGAGTCACCTAGTGCAG,8340 fluorescence intensity (a.u.)
10,ACGCATCTGTTTTTATTCTCTCCCATCTCTCCCGATCTCTCGGAGTCACCTAGTGCAG,8880 fluorescence intensity (a.u.)
11,CTGCCATGCCGTGTCTGTCGGTCGGTCACACCGGCACCTTCGGAGTCACCTAGTGCAG,9190 fluorescence intensity (a.u.)
12,TATCTCTCTCGTTTTCTTCTCTCTTCGAGGAGCCGAGGCGCGGAGTCACCTAGTGCAG,8200 fluorescence intensity (a.u.)
13,GCACCTATGTGGCAAATTTGACTTAGTCTTCATCTGATGTCGGAGTCACCTAGTGCAG,8950 fluorescence intensity (a.u.)
14,CATTTAATTTTCCTAGTCACCCTTATTTAAATAACTTCAACGGAGTCACCTAGTGCAG,8450 fluorescence intensity (a.u.)
15,CGTGCACCAATACTACAACGGATACTGCAACAACATACTCCGGAGTCACCTAGTGCAG,8210 fluorescence intensity (a.u.)
16,GCCTATGATACGTCAAATTTGGTCTTGGGTTGGTATATATCGGAGTCACCTAGTGCAG,13200 fluorescence intensity (a.u.)
17,TCTGTTGTAATTGTAATCTAATCATATTAAATCCTTAGTTCGGAGTCACCTAGTGCAG,8410 fluorescence intensity (a.u.)
18,TGTCCTCTATTGATCTTTCTCTGCGTCCTAGTATGAAGAACGGAGTCACCTAGTGCAG,8180 fluorescence intensity (a.u.)
19,ATACTCTGCTCCCAACTACTAGTCAACATTGACTGGTATTCGGAGTCACCTAGTGCAG,10800 fluorescence intensity (a.u.)
20,TCTGCTTCAGCTCTAGTCTCAGCCGTCTCATTTCCGTTTCCGGAGTCACCTAGTGCAG,9570 fluorescence intensity (a.u.)
21,CATGTACTTCCCTCAGGTTAGACCATCTGTTTTTGTATCCCGGAGTCACCTAGTGCAG,9250 fluorescence intensity (a.u.)

row,Sequence,binding signal
1,GTGGGGTCGGGTACTCGCGTGGGCCCACCTGGCCGGTCAACGGAGTCACCTAGTGCAG,10200 fluorescence intensity (a.u.)
2,GTTTGATGATCTCTTGTTTCGATCGGCATGACATGGCTCCCGGAGTCACCTAGTGCAG,8180 fluorescence intensity (a.u.)
3,TCCCAGCAAATGCAACGCTCGTACTCCTCGCATCAACAGCCGGAGTCACCTAGTGCAG,8210 fluorescence intensity (a.u.)
4,TGCAGTTCGTTTTCGCCTGAACATTACTACCAGCAGCCCACGGAGTCACCTAGTGCAG,8770 fluorescence intensity (a.u.)
5,CTTTTGTGTGAGTTTTTGTGGTGACCATCCATGCATGCATCGGAGTCACCTAGTGCAG,9720 fluorescence intensity (a.u.)
6,CACTGTTCCTTTCTTGACTTTCAGAGTTCACAGCATAGTTCGGAGTCACCTAGTGCAG,13200 fluorescence intensity (a.u.)
7,ACAGCACATTTTCGATTTTTTTTTCCCAATACACTATATACGGAGTCACCTAGTGCAG,11500 fluorescence intensity (a.u.)
8,AAAAGATTTAGTTTTTCCGGTTGCAATATTTGTGAAATTACGGAGTCACCTAGTGCAG,8080 fluorescence intensity (a.u.)
9,CATAATGTTTCACTTGTTGGTCAACTGTAACTAACATTGGCGGAGTCACCTAGTGCAG,8680 fluorescence intensity (a.u.)
10,CTATTTCAGTTGTGTTTGTGCGTGTCTGTACTTTATGTTTCGGAGTCACCTAGTGCAG,9990 fluorescence intensity (a.u.)
11,GCCAGCTGGACTTTGTACTCCAACAAACGGCAGCGATGACCGGAGTCACCTAGTGCAG,8220 fluorescence intensity (a.u.)
12,CACGAGTTCATCCCCGGTCCTGTAATCCATCGGATCCACACGGAGTCACCTAGTGCAG,8060 fluorescence intensity (a.u.)
13,GTGTGTGGTTGTGGAAATAGTGATTGTCAGAGAACGGATGCGGAGTCACCTAGTGCAG,8700 fluorescence intensity (a.u.)
14,CCCAAAGCTGCACAAGCCCACGCCCACGCCTACGCCCATGCGGAGTCACCTAGTGCAG,8550 fluorescence intensity (a.u.)
15,CTGTTTGTTCCTCGCACCATGTGAAAAGATCGGACGGAACCGGAGTCACCTAGTGCAG,8790 fluorescence intensity (a.u.)
16,AAATCTATATATATCTCTCTACGTATATATTTTTTTTCTTCGGAGTCACCTAGTGCAG,9590 fluorescence intensity (a.u.)
17,ACCCTAGTTCACGCCCACCGGGGATGCTGCGACTGCGAATCGGAGTCACCTAGTGCAG,8400 fluorescence intensity (a.u.)
18,CCTTGCTCTGCCGACGCCCTCCACCTGCTCGCCGTCGACGCGGAGTCACCTAGTGCAG,9190 fluorescence intensity (a.u.)
19,CTGTGTCCAATATTTGATCGTCCATCTTATTTAAATCTTTCGGAGTCACCTAGTGCAG,9730 fluorescence intensity (a.u.)
20,ATTCCGCTTCCCCGCTCTCTTCTGCAAGCGCGCAATAATCCGGAGTCACCTAGTGCAG,8720 fluorescence intensity (a.u.)
21,GCAGTCCCTGTTGATCCATCCTGCCACCGATCTTGTCTCTCGGAGTCACCTAGTGCAG,9300 fluorescence intensity (a.u.)

# In a second layout: results already given
row | Sequence | binding signal
7 | ACAGCACATTTTCGATTTTTTTTTCCCAATACACTATATACGGAGTCACCTAGTGCAG | 11500 fluorescence intensity (a.u.)
8 | AAAAGATTTAGTTTTTCCGGTTGCAATATTTGTGAAATTACGGAGTCACCTAGTGCAG | 8080 fluorescence intensity (a.u.)
